The list shows a part of the results. The main result of the screen is listed elsewhere. These columns were measured beside it and carry no call. Most of these compounds were active or inconclusive in the main read-out, so they are no random draw. Potencies come from curve fits of mixed quality, noted in brackets.
Experiment: IkB Signaling
Details: ABC-DLBCL IkBa-CBG/CBR dual luciferase ratio (green luciferase fused to IkBa over red control in OCI-Ly3 lymphoma cells), 4 h
Description: NIH Molecular Libraries Screening Centers Network [MLSCN]
NIH Chemical Genomics Center [NCGC]
Nuclear factor kappa-B (NF-kappa-B) plays an important role in normal B cell development and survival. Diffuse large B cell lymphoma (DLBCL) is the most commonly observed type of non-Hodgkin's lymphoma. Gene expression analysis has identified an activated B cell-like subtype of DLBCL (ABC-DLBCL) which expresses known NF-kappa-B target genes. […] However, targets upstream of IKK have been largely unexplored and so nodes upstream of IKK in the NF-kappa-B pathway remain untested due to the lack of chemical probes.
A cell-sensor assay for I-kappa-B-alpha stabilization was developed with NIH investigator Dr. R. Eric Davis in Dr. Louis M. Staudt's laboratory. The assay uses green (CBG68) and red (CBR) emitting beetle luciferases [Chroma-Glo(TM) developed by Promega Corp.] where the green luciferase is fused to I-kappa-B-alpha and the red luciferase is present in its native state. Both luciferase genes are stably present in the OCI-Ly3 human ABC DLBCL cell line, but their expression is under the control of tetracycline-inducible promoters. Following the addition of doxycycline to induce expression of the luciferases, the green luminescence in control cultures rises only slowly because the CBG fusion partner I-kappa-B-alpha is targeted by IKK activity for rapid degradation. In contrast, green luminescence rises rapidly in the presence of proteasome inhibitors or IKK inhibitors. The rise in red luminescence of CBR is not affected by proteasome or IKK inhibitors, and serves as normalization for cell number and nonspecific effects. Compounds were screened as a concentration-titration series that ranged from 57 uM to 0.7 nM.
NCGC Assay Protocol Summary:
Cells were seeded in 1536-well plates at 5000 cells/3ul in IMDM medium containing 0.5% FBS, w/o phenol red, L-glutamine, 25 mM HEPES, 3 mg/ml sodium bicarbonate. After centrifugation for 1 min. at 1000 rpm, 23 nl of compounds or DMSO were delivered to each well using a pin tool. Then 1ul 80ng/ml doxycycline was dispensed into white solid 1536-well plates and the plates were incubated at 37C/5% C02 in a cell incubator for 4 hrs. Then 4 ul Chroma-Glo luminescent substrate mix (Promega) was added to each well. The plate was incubated at R.T. for 10-15 min. The plates were measured on a ViewLux plate reader for green luminescence (540/20 nm filter) and red luminescence (618/8 nm filter). The green and red luminescent signals were corrected for red and green luminescence filter overlap using previously determined filter calibration constants (determined using the procedure outlined in the Promega Technical Manual). The %Activity was determined from the ratio of corrected green/red luminescent values. Green luminescent and ratio %Activity was determined by normalizing to the difference in signal between basal cells (0% Activity) and cells incubated with 10 uM of the proteasome inhibitor MG-132 (100% Activity). Red luminescent %Activity was normalized to the difference between red luminesence in basal cells (0%Activity) and zero luminescence (-100% Activity).
Concentration-response curves were fitted to the signals arising from the green luminescence (I-kappa-B-alpha-luciferase fusion; IkB-luc) and the red luminescence (unfused luciferase; luc) as well as the calculated ratio. The concentration-effect curves were then classified based on curve quality (r2), response magnitude and degree of measured activity. Compounds were then categorized based on their concentration-response curves for all three datasets (Ikb-luc, luc and ratio).
Keywords: IKK, I-kappa-B, IkB, IkBa, cytotoxicity, luminescence, MLSMR, MLSCN, NIH Roadmap, qHTS, NCGC

[1] = measured here: control luc red channel unless noted

In the case of Cc1ccc2nc(N3CCN(Cc4ccc(F)cc4)C3=O)c(C)cc2c1, the AC50 [1] is reported as 31.6 µM [falling, single point].
With Cc1nc2nc(SCC(=O)O)nn2c(C)c1Cc1c(F)cccc1Cl the AC50 [1] was 3.98 µM [falling, partial curve].
For Cc1ccc(CN(C(=O)COc2ccc(Cl)c(C)c2)C2CCS(=O)(=O)C2)o1 (stereo not given), the AC50 [1] was 12.6 µM [falling, partial curve].
With COc1ccc(-c2noc(CCC(=O)Nc3ccc4c(c3)OCCO4)n2)cc1 the AC50 [1] was 5.01 µM [falling, full curve, poor fit].
For Cc1nc(Nc2ccc(Cl)cc2)cc(-c2ccccc2)n1, the AC50 [1] was 7.94 µM [falling, single point].
For O=c1c2cn[nH]c2nc(SCc2cccc(Br)c2)n1-c1ccc(Cl)cc1, the AC50 [1] was 39.8 µM [falling, single point].
With COc1ccccc1CNC(=O)NCc1noc2ccc(C)cc12 the AC50 [1] was 15.8 µM [falling, single point].
For COc1ccc(CNC(=O)c2nc(SC(C)C)ncc2Cl)cc1, the AC50 [1] was 10 µM [falling, single point].
With COCCCNC(=O)c1sc2nc3n(c(=O)c2c1C)CCC3 the AC50 [1] was 0.01 µM [falling, full curve, poor fit].
In the case of O=C(Nc1ccc(F)cc1)N1CCC(c2nc3c(nnn3Cc3cccc(Cl)c3)c(=O)[nH]2)CC1, the AC50 [1] is reported as 31.6 µM [falling, single point].
With CCC(=O)Nc1ccc2nc(SCCOc3ccccc3)sc2c1 the AC50 [1] was 0.00631 µM [rising, full curve].
For CC(=O)Nc1nonc1-c1nnc(SCC(=O)Nc2ccccc2)n1-c1ccccc1, the AC50 [1] was 15.8 µM [falling, partial curve, poor fit].
In the case of COC(=O)CSc1nnc2n(C3CCCCC3)c(=O)c3c4c(sc3n12)CCCC4, the AC50 [1] is reported as 31.6 µM [falling, single point].
For CCCCOc1ccc(CNC(=O)c2ccc(NC(=O)N3CCCCc4ccccc43)cc2)cc1, the AC50 [1] was 2 µM [falling, full curve, poor fit].
In the case of CCOC(=O)Cn1c(=O)n(CC2CCCO2)c2nc(-c3cccc(C)c3)nc(C(N)=O)c21 (stereo not given), the AC50 [1] is reported as 10 µM [falling, partial curve, poor fit].
In the case of CC1(C)CC(=O)C2=C(C1)OC(N)=C(C#N)C2C#Cc1ccccc1 (stereo not given), the AC50 [1] is reported as 25.1 µM [rising, partial curve] [measured here: IkB-luc green channel].
In the case of COC(=O)c1ccc(-n2c(CCC(=O)O)ccc2-c2ccc(C)cc2)cc1, the AC50 [1] is reported as 12.6 µM [falling, partial curve].
With Cc1ccc(C)c(N2CCN(Cc3nnc(-c4ccc5c(c4)OCO5)o3)CC2)c1 the AC50 [1] was 31.6 µM [falling, partial curve].
For CCC(=O)N1c2ccccc2CC1C(=O)NCCN1CCN(c2cccc(C(F)(F)F)c2)CC1 (stereo not given), the AC50 [1] was 15.8 µM [falling, partial curve].
In the case of Cc1ccccc1CSc1nc2cc(C(=O)NC3CCCC3)ccc2c(=O)n1Cc1ccccc1, the AC50 [1] is reported as 0.0316 µM [falling, partial curve].
For Cc1ccc(O)c(NC(=O)c2ccc(Br)c(S(=O)(=O)N3CCCCC3)c2)c1, the AC50 [1] was 10 µM [falling, partial curve].
In the case of CCC(c1nnnn1C1CCCCC1)N(Cc1ccco1)Cc1cc2ccc(OC)cc2[nH]c1=O (stereo not given), the AC50 [1] is reported as 20 µM [falling, partial curve].
With CCCSc1ccc2nc(NC(=O)OC)[nH]c2c1 the AC50 (measured here: IkB-luc green channel) was 1.58 µM [rising, full curve] and the AC50 (measured here: control luc red channel) was 1.26 µM [rising, full curve].
With Cc1ccc(-n2nc(CO)c(C(=O)NC(C)CCCc3ccccc3)n2)cc1C (stereo not given) the AC50 [1] was 12.6 µM [falling, partial curve].
For Cc1ccc(C)c2[nH]c(=O)c(CN(Cc3nnnn3C3CCCCC3)CC3CCCO3)cc12 (stereo not given), the AC50 [1] was 39.8 µM [falling, single point].
For COc1ccc(C)cc1NC(=O)Cn1c(=O)cc(C)c2c(C)nn(C)c21, the AC50 [1] was 12.6 µM [falling, partial curve].
In the case of Cc1cc2cc(C(c3nnnn3Cc3ccco3)N3CCc4ccccc43)c(=O)[nH]c2cc1C (stereo not given), the AC50 [1] is reported as 25.1 µM [falling, partial curve].
In the case of COC(=O)C1=C(N)Oc2cc(N(C)C)ccc2C1c1ccccc1OC (stereo not given), the AC50 [1] is reported as 5.01 µM [rising, single point] [measured here: IkB-luc green channel].
In the case of Nn1c(SCC(=O)N2CCCc3ccccc32)nnc1-c1ccc(Cl)cc1, the AC50 [1] is reported as 39.8 µM [falling, single point].
For COc1cccc(CNC(=O)c2ccc3c(c2)nnn3C2CCCC2)c1, the AC50 [1] was 39.8 µM [falling, single point].
With COc1ccccc1C(=O)Nc1nnc(SCc2cc(=O)c3cc(Cl)ccc3[nH]2)s1 the AC50 [1] was 6.31 µM [falling, partial curve].
For COc1ccc(NC(=O)c2c(-c3ccc(C)cc3)nnc3ccccc23)cc1Cl, the AC50 [1] was 39.8 µM [rising, partial curve, poor fit].
With Cc1ccc(C)c(N2CCN(C(=O)C3CCCN(S(=O)(=O)c4cccc5nsnc45)C3)CC2)c1 (stereo not given) the AC50 [1] was 10 µM [falling, partial curve].
For O=C(CCC1N=C2c3ccccc3N=C(SCc3ccc(Cl)cc3)N2C1=O)NCCc1ccccc1 (stereo not given), the AC50 [1] was 25.1 µM [falling, partial curve].
With Fc1ccc(C(NCCc2ccc(Cl)cc2)c2nnc(-c3ccccc3)o2)c(Cl)c1 (stereo not given) the AC50 [1] was 12.6 µM [falling, partial curve].
In the case of COc1cccc(C(=O)NCC2CCN(c3ccc(S(=O)(=O)N4CCOCC4)cc3)CC2)c1, the AC50 [1] is reported as 15.8 µM [falling, partial curve].
For Cc1c(NC(=O)Nc2ccc(Br)cc2F)sc2nc3n(c(=O)c12)CCC(C)CC3 (stereo not given), the AC50 [1] was 15.8 µM [falling, partial curve].
With CC(=O)NCC(c1ccc2c(c1)OCO2)N1CCN(c2ccccc2)CC1 (stereo not given) the AC50 [1] was 31.6 µM [rising, single point].
For CCn1c2ccccc2c2nnc(SCc3ccc(C(=O)OC)o3)nc21, the AC50 [1] was 20 µM [falling, partial curve].
